Results taken from the supplement of paper PMC10735217.
Where a name gives a salt, the structure may show the parent alone. This is one part of the list. Single values are uncertain here, since repeats match poorly.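 The human kidney-derived cells carry a stably integrated construct of eight TEAD-binding elements driving luciferase, read by luminescence in a drug-repurposing library screen. A compound counts as a hit when its signal is more than five robust Z scores above the plate mean.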

Tested on: HEK293A TEAD-LUC reporter
Test: TEAD-luciferase reporter activity (YAP activation), robust Z score vs plate; higher = stronger YAP/TEAD activation
Conditions: 24 h

| SMILES | TEAD-luciferase reporter activity (compound concentration: 200 nM) | TEAD-luciferase reporter activity (compound concentration: 2 uM) | TEAD-luciferase reporter activity (compound concentration: 10 uM) |
| --- | --- | --- | --- |
| CC(C)C[C@H](NC(=O)[C@@H]1CCCN1)C(=O)N[C@@H](C)C(=O)N[C@@H](CCCNC(=N)N)C(=O)N[C@H](C(=O)N[C@@H](CC(C)C)C(=O)N[C@@H](CO)C(=O)N[C@H](C(=O)N[C@@H](C)C(=O)NCC(=O)N[C@@H](CC(C)C)C(=O)N1CCC[C@H]1C(=O)NCC(=O)N[C@@H](CCCCN)C(=O)N[C@@H](CCCCN)C(=O)O)C(C)C)[C@@H](C)O [Syntide-2] | inactive: -3.19 | inactive: -1.17 | inactive: -2.11 |
| Cc1cccc(-c2nn3c(c2-c2ccnc4ccc(C(N)=O)cc24)CCC3)n1 | inactive: 0.0791 | inactive: -0.466 | inactive: -1.26 |
| CC(=O)NCCCC(=O)OC1c2ccccc2C(=O)N1c1ccc2ccc(Cl)nc2n1 (configuration not stated) | inactive: -0.731 | inactive: -0.208 | inactive: -1.33 |
| C1=C(c2ccccc2)C(c2ccc(OCCN3CCCCC3)cc2)Oc2ccccc21 (configuration not stated) | inactive: -1.54 | inactive: 1.14 | inactive: 0.939 |
| O=C(CN1CCN(Cc2ccc3c(c2)OCO3)CC1)N1c2ccccc2Sc2ccccc21 [fenoverine] | inactive: -1.46 | inactive: -2.36 | inactive: -1.6 |
| CC(C)(C)NCc1ccc(Nc2ccnc3cc(Cl)ccc23)cc1O [N-tert-Butylisoquine] | inactive: -1.06 | inactive: 1.94 | inactive: -0.69 |
| CCN(C)C(=O)c1ccc2c(c1)NC(=O)/C2=C(/Nc1ccc(CN2CCCCC2)cc1)c1ccccc1 | inactive: 0.984 | inactive: -0.82 | inactive: 0.0509 |
| CC(C)N1CCN(c2ccc(N3CCN(c4ccc(OC[C@@H]5OC[C@](Cn6cncn6)(c6ccc(F)cc6F)O5)cc4)CC3)cc2)C1=O | inactive: -0.644 | inactive: -1.63 | inactive: -0.456 |
| O=C(CCCCC(=O)Nc1scc(-c2cccs2)c1C(=O)O)Nc1scc(-c2cccs2)c1C(=O)O | inactive: -1.75 | inactive: 1.25 | inactive: 2.21 |
| CC[C@H]1OC(=O)C[C@@H](O)[C@H](C)[C@@H](O[C@@H]2O[C@H](C)[C@@H](O)[C@H](N(C)C)[C@H]2O)[C@@H](CCN2CCCCC2)C[C@@H](C)C(=O)/C=C/C(C)=C/[C@@H]1CN1CCCCC1 [Tildipirosin] | inactive: -0.173 | inactive: -0.243 | inactive: -0.283 |
| CCCCC1(COC(=O)CCC(=O)O)C(=O)N(c2ccccc2)N(c2ccccc2)C1=O | inactive: -1.9 | inactive: 0.507 | inactive: 1.28 |
| COc1ccc(CCNCCC(=O)N2CCCSc3ccccc32)cc1OC | inactive: 1.23 | inactive: 1.99 | inactive: -0.2 |
| O=C(Cc1ccc(O)cc1)Nc1ccc2cnn(CCN3CCCC3)c2c1 | inactive: -1.85 | inactive: 1.01 | inactive: 0.13 |
| Nc1ncnc2c1ncn2C1CCC(O)C1 (configuration not stated) | inactive: -0.861 | inactive: -1.06 | inactive: 0.721 |
| CC[C@@]12C=C(C(=O)O)n3c4c(c5ccccc53)CCN(CCC1)[C@H]42 | inactive: -0.242 | inactive: -1.85 | inactive: 0.967 |
| Cc1cc(Nc2nc(C(O)c3ccc(F)cc3)nc3ccccc23)n[nH]1 (configuration not stated) | inactive: -1.89 | inactive: -1.81 | inactive: -1.47 |
| CN(CCC1c2ccccc2COc2ccccc21)CC(O)COc1ccccc1 (configuration not stated) | inactive: -0.673 | inactive: -0.546 | inactive: -1.52 |
| CCCc1nc2ccc(N(CCC)C(=O)c3ccccc3)cc2c(=O)n1Cc1ccc(-c2ccccc2-c2nnn[nH]2)cc1 | inactive: -1.28 | inactive: -1.16 | inactive: -0.464 |
| NS(=O)(=O)c1cc2c(cc1Cl)NCNS2(=O)=O [hydrochlorothiazide, Elan] | – | inactive: 2.68 | – |
| NS(=O)(=O)c1cc2c(cc1Cl)NCNS2(=O)=O | inactive: 3.38 | – | inactive: 0.95 |
| CC(C)(C)c1cc(N2CCCC2=O)cc(C(C)(C)C)c1O | inactive: -1.68 | inactive: -0.397 | inactive: 0.736 |
| CC[C@H](C)[C@H](NC(=O)[C@H](CCCCN)NC(=O)[C@H](CCCCN)NC(=O)[C@H](Cc1ccccc1)NC(=O)[C@H](CC(C)C)NC(=O)[C@H](CCCCN)NC(=O)[C@@H](N)CCCCN)C(=O)N[C@@H](CC(C)C)C(=O)N[C@@H](CCCCN)C(=O)N[C@@H](CCCCN)C(=O)N[C@@H](CC(C)C)C(N)=O | inactive: 0.139 | inactive: -0.722 | inactive: -0.107 |
| CC(C)c1c(O)ccc2c1CC[C@H]1C(C)(C)CCC[C@]21C | inactive: 1.98 | inactive: 0.612 | inactive: 2.99 |
| C1CN(CC2CC2)CCN1 | inactive: -1.61 | inactive: -1.16 | inactive: -1.04 |
| CC(C)Oc1ccc(-c2cc(=O)c3c(OC(C)C)cc(OC(C)C)cc3o2)cc1 | inactive: -0.526 | inactive: 0.719 | inactive: -1.5 |
| CCCCC1(CN2CCN(C)CC2)C(=O)N(c2ccccc2)N(c2ccccc2)C1=O | inactive: -0.884 | inactive: -0.61 | inactive: 2.31 |

| SMILES | TEAD-luciferase reporter activity (compound concentration: 200 nM) | TEAD-luciferase reporter activity (compound concentration: 2 uM) | TEAD-luciferase reporter activity (compound concentration: 10 uM) |
| --- | --- | --- | --- |
| CSc1nn2c(C)cc(=O)[nH]c2c1S(=O)(=O)c1ccccc1 | inactive: -1.57 | inactive: 0.68 | inactive: -1.5 |
| CC(C)[C@H](N)C(=O)O [L-Valine] | inactive: -1.04 | inactive: -2.31 | inactive: -0.736 |
| O=c1c2ccccc2nc2n1OCC2 | inactive: 0.4 | inactive: 0.435 | inactive: 0.168 |
| C=C1C[C@]23C[C@@]1(O)CC[C@H]2[C@@]12C=C[C@H](O)[C@@](C)(C(=O)O1)[C@H]2[C@@H]3C(=O)O | inactive: -0.267 | inactive: -0.323 | inactive: -0.448 |
| CCCCc1ncc(/C=C(\Cc2cccs2)C(=O)O)n1Cc1ccc(C(=O)O)cc1 [eprosartan mesylate] | inactive: -0.024 | inactive: 1.8 | inactive: -1.43 |
| CC(C)C[C@H](NC(=O)[C@@H](N)CC(N)=O)C(=O)NCC(=O)N[C@@H](CCC(=O)O)C(=O)N[C@@H](Cc1cnc[nH]1)C(=O)N1CCC[C@H]1C(=O)N[C@H](C(=O)N[C@@H](CS)C(=O)N[C@@H](CC(=O)O)C(=O)N[C@@H](CO)C(=O)O)C(C)C | inactive: 1.26 | inactive: 0.123 | inactive: 3.52 |
| CCCCCCCC[N+](CC)(CC)CCOC(=O)C(C1CCCC1)C1CCCC1 | inactive: -1.39 | inactive: 0.0628 | inactive: -1.63 |
| CC(C)NCC(O)c1ccc(NS(C)(=O)=O)cc1 [D-sotalol] | – | inactive: -0.122 | – |
| CC(C)NCC(O)c1ccc(NS(C)(=O)=O)cc1 (configuration not stated) | inactive: 0.669 | – | inactive: 0.726 |
| CCCC(=O)N1CC[C@H]2CC(=O)NCC[C@H]2C1 | inactive: -0.184 | – | inactive: 3.43 |
| C[C@H]1CNCCCN1S(=O)(=O)c1cccc2cncc(F)c12 [Ripasudil hydrochloride hydrate] | inactive: 0.119 | inactive: 4.45 | inactive: -1.28 |
| Cc1ccc2cccc(OCc3c(Cl)ccc(N(C)C(=O)CNC(=O)/C=C/c4ccc(/C=C/c5ccncc5)nc4)c3Cl)c2n1 | inactive: -1.1 | inactive: -1.18 | inactive: -0.229 |
| NCCCCCCNS(=O)(=O)c1cccc2c(Cl)cccc12 | inactive: -1.75 | inactive: 0.977 | inactive: 1.55 |
| CCCCOC(=O)c1ccc(N)cc1 [butamben] | – | inactive: -1.55 | – |
| CCCCOC(=O)c1ccc(N)cc1 [butamben, Jazz] | inactive: -0.992 | – | inactive: -1.39 |
| Cc1ccc(O[C@H]2O[C@H](CCP(=O)(OC(C)C)OC(C)C)[C@@H](O)[C@H](O)[C@@H]2O)c(C)c1 | inactive: 0.767 | inactive: 1.06 | inactive: -0.0203 |
| CC[N+](C)(CC)CCOC(=O)C1c2ccccc2Oc2ccccc21 [Methantheline] | inactive: -0.905 | – | inactive: 0.657 |
| CC[N+](C)(CC)CCOC(=O)C1c2ccccc2Oc2ccccc21 [Methantheline Bromide] | – | inactive: -1.23 | – |
| CC(C)(C)NCC(O)COc1cccc2c1CC1(CCCCC1)C2=O (configuration not stated) | inactive: -1.25 | inactive: -1.22 | inactive: 0.346 |
| CC(=O)N(O)CCC[C@@H]1NC(=O)[C@H](CCCN(O)C(C)=O)NC(=O)[C@H](CCCN(O)C(C)=O)NC(=O)[C@@H](Cc2ccccc2)NC(=O)[C@H](CC(C)C)NC(=O)[C@H](CC(N)=O)NC1=O | inactive: 0.162 | inactive: -0.55 | inactive: -0.0542 |
| O=[N+]([O-])c1ccc(C=NO)o1 [Nifuroxime] | inactive: 0.594 | inactive: 0.394 | inactive: -0.965 |
| N=C(N)Nc1ccc(C(=O)Oc2ccc3cc(C(=N)N)ccc3c2)cc1 [nafamostat mesilate, Mucokinetica] | inactive: -0.436 | inactive: -0.176 | inactive: 0.555 |
| CS(=O)(=O)c1ccccc1-c1ccc(CCNS(=O)(=O)c2cc(C(N)=NO)ccc2O)c(OCC(=O)O)c1 | inactive: -1.45 | inactive: 1.3 | inactive: 0.83 |
| Nc1nc(/C(=C/CC(=O)O)C(=O)N[C@@H]2C(=O)N3C(C(=O)O)=CCS[C@H]23)cs1 [ceftibuten] | – | inactive: 1.22 | – |
| Nc1nc(/C(=C/CC(=O)O)C(=O)N[C@@H]2C(=O)N3C(C(=O)O)=CCS[C@H]23)cs1 [Ceftibuten hydrate] | inactive: 0.544 | – | inactive: -0.697 |

3 records picked at random from the list so far:

| SMILES | TEAD-luciferase reporter activity (compound concentration: 200 nM) | TEAD-luciferase reporter activity (compound concentration: 2 uM) | TEAD-luciferase reporter activity (compound concentration: 10 uM) |
| --- | --- | --- | --- |
| CC[N+](C)(CC)CCOC(=O)C1c2ccccc2Oc2ccccc21 [Methantheline Bromide] | – | inactive: -1.23 | – |
| O=C(CN1CCN(Cc2ccc3c(c2)OCO3)CC1)N1c2ccccc2Sc2ccccc21 [fenoverine] | inactive: -1.46 | inactive: -2.36 | inactive: -1.6 |
| CCCCOC(=O)c1ccc(N)cc1 [butamben] | – | inactive: -1.55 | – |
